Results from patent US10718772B2 (USTAV ORGANICKE CHEMIE A BIOCHEMIE AKADEMIE VED CR, V.V.I., priority 2014, dated 2020).

Test: general procedure: Fmoc solid-phase peptide synthesis; 2-Chlortrityl chloride resin (Iris-Biotech); HOBt/DIC (printed 'HOBUDIC')
Settings: conjugation step

(21S,24S,27S,28S,32S,35S,36S)-1-((2,5-dioxopyrrolidin-1-yl)oxy)-28,36-dihydroxy-27,35-diisobutyl-21,24-diisopropyl-32-methyl-1,19,22,25,30,33-hexaoxo-4,7,10,13,16-pentaoxa-20,23,26,31,34-pentaazaoctatriacontan-38-oic acid, NHS-PEG5-pepstatin
conjugation yield: 33%
final HPLC purity (analytical HPLC): well above 99%
